One molecule from patent US20020141999A1 can be followed below.

These are yes or no findings as the source states them, for the method shown. Some results given as binding are weak or reduced against the parent protein; the word gives no strength. Where a sequence is shown, tags or fusion partners need not be part of it.

For test [1], the target named is T1, murine K12, full length, on transfected cells (mouse) (UniProt Q9JL59).
T1 sequence: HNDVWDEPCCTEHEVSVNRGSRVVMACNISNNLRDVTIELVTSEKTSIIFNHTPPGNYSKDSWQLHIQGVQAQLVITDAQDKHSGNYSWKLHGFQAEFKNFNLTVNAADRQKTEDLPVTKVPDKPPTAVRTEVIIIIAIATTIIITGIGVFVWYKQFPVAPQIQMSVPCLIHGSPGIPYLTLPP
Kind of test: Fc fusion binding to transfected cells.

The target of test [2] is T1, murine K12, full length, on transfected cells (mouse). Kind of test: Fc fusion binding to transfected cells, 125I anti-human Fc.

B1: murine CD7-Fc fusion protein (Fc fusion, not shown: a dimerising Fc or GST)
chain: QDVHQSPRLTIASEGDSVNITCSTRGHLEGILMKKIWPQAYNVIYLEDRQEPTVDRTFSGRINFSGSQKNLTITISSLQLADTGDYTCEAVRKVSARGLFTTVVVKEKSSQEAYRSQEPLQTSFSFP
On to B1, for which the binding entry in test [1] and in test [2] was “binds” throughout.
